Some compounds share one wording; it may come from a single statement.
Columns and labels:
[1] = Fragrance Fidelity Index (FFI) assigned by perfumers/expert graders on fabric swatches; design: species or system human; key: FFI grade on reference scale anchored by 0, 1, 2, 3 swatches
Description: Blocker materials suitable for use in consumer products of the present invention are chosen for their ability to decrease malodor, while not interfering with perception of a fragrance. Material selection is done by assigning two indices to a test sample material from two reference scales in order to rank odor strengths. The two reference scales are the Fragrance Fidelity Index (FFI) scale and the Blocker Index (BI) scale. The FFI ranks the ability of the test sample material to impart a perceivable odor which could cause interference when combined with another fragrance and the BI ranks the ability of the test sample material to reduce malodor perception. The two methods for assigning the indices to a test sample on the FFI and the BI reference scales are given below.
The first step in the method for assigning an FFI to the test samples on the FFI reference scale is to create the FFI reference swatches. […] Fabric swatches for this test are white knit polycotton (4 inch×4 inch) swatches from EMC ordered as PC 50/50. The supplier is instructed to strip the swatches first, stripping involves washing twice with a fragrance-free detergent and rinsing three times.
Pipette 13 μL of each of the three solutions into the middle of a clean swatch resulting in about a 1 cm diameter of the solution in the middle of the swatch. This will create a sensory scale of three swatches with three different odor levels based on the concentration of the solution pipetted onto the swatch. After drying for 30 minutes in a vented hood, the swatches are wrapped in aluminum foil to prevent odor contamination to the treated swatch. A clean untreated swatch is also included as the lowest anchor point of reference for odor strength on the FFI scale. The FFI reference scale swatches should be used within 0.5 to 12 hours and discarded after 12 hours. The swatches are used as scale anchor points when graders evaluate a test sample(s) and are assigned a Fragrance Fidelity Index (FFI) as show in Table 7.
The perfumer/expert panel is asked to rank order swatches according to a scale between 0 and 3.
The reference swatches represent the 0, 1, 2, and 3 FFIs on the FFI reference scale, Table 9. The expert grader should familiarize them self with the strength of the odor on the FFI reference swatches by sniffing each one starting at 0 (the lowest odor strength) and ending at 3 (the highest odor strength). This should be done prior to evaluating the test sample material treated swatch.
A clean swatch is treated with 13 μL of a known concentration of a test sample material resulting in an about 1 cm of the solution on the clean swatch. Just like the reference swatches, the test sample material swatch is dried in a vented hood for 30 minutes and then wrapped in aluminum foil to prevent contamination. The test material swatches and the FFI reference swatches should be made within 2 hours of each other. The test material swatch must be used within 0.5 to 12 hours and discarded after 12 hours.
At least two perfumers/expert graders are used to assign an FFI grade to a test sample. The perfumer/expert grader smells the test sample swatch by holding that swatch 1 inch from their nose with their nose centered over the area where the test sample was pipetted on to the fabric and then assigns the test sample an FFI grade using the FFI reference scale anchor swatches as references. […]

[2] = Melamine formaldehyde PMC leakage
[3] = Melamine formaldehyde PMC Headspace Response Ratio
[4] = test material at 10 ppm on swatch
[5] = test material at 50 ppm on swatch

| Compound | Comment Code: Melamine formaldehyde PMC leakage ([2]; code letter J) | Comment Code: Melamine formaldehyde PMC Headspace Response Ratio ([3]; code letter I) | Melamine formaldehyde PMC leakage (Comment Code J) [2] | Melamine formaldehyde PMC Headspace Response Ratio (Comment Code I) [3] | also measured |
| --- | --- | --- | --- | --- | --- |
| CC1(C)CCc2ccc(CCC=O)cc21 | – | – | – | – | FFI [1, 4]: 0; FFI [1, 5]: 0.5 |
| CC1CCC2(C(C)C)CC(C)OC2C1 (stereo not drawn) | – | – | – | – | FFI [1, 5]: 0.3 |
| CCC(=O)OC1CC2C3C=CCC3C1C2(C)C (stereo not drawn) [8,8-dimethyl-3a,4,5,6,7,7a-hexahydro-1H-4,7-methanoinden-6-yl propionate] | – | – | – | – | FFI [1, 4]: 0; FFI [1, 5]: 0 |
| CC(O)CCC1C(C)CCCC1(C)C (stereo not drawn) [Material 1052] | J (Melamine formaldehyde PMC leakage less than or equal to 5%) | I (Melamine formaldehyde PMC Headspace Response Ratio greater than or equal to 10) | – | – | – |
| CCCCCC1C(=O)CCC1C (stereo not drawn) [Material 1053] | – | – | J (Melamine formaldehyde PMC leakage less than or equal to 5%) | I (Melamine formaldehyde PMC Headspace Response Ratio greater than or equal to 10) | – |
| CCC(C)(O)CCCC(C)C (stereo not drawn) [Material 1054] | J (Melamine formaldehyde PMC leakage less than or equal to 5%) | I (Melamine formaldehyde PMC Headspace Response Ratio greater than or equal to 10) | – | – | – |
| CC1=CCCC(C)(C)C12CCC(C)O2 (stereo not drawn) [Material 1057] | – | – | J (Melamine formaldehyde PMC leakage less than or equal to 5%) | I (Melamine formaldehyde PMC Headspace Response Ratio greater than or equal to 10) | – |
| CCOC(=O)[C@@H]1[C@@H](C)CCCC1(C)C [Material 1058] | J (Melamine formaldehyde PMC leakage less than or equal to 5%) | I (Melamine formaldehyde PMC Headspace Response Ratio greater than or equal to 10) | – | – | – |
| CC1CCC(C(C)(C)S)C(=O)C1 (stereo not drawn) [Material 1059] | – | – | J (Melamine formaldehyde PMC leakage less than or equal to 5%) | I (Melamine formaldehyde PMC Headspace Response Ratio greater than or equal to 10) | – |
| COc1cc(C)ccc1C(C)C [Material 1062] | – | – | J (Melamine formaldehyde PMC leakage less than or equal to 5%) | I (Melamine formaldehyde PMC Headspace Response Ratio greater than or equal to 10) | – |
| CCCC(C)(S)CO (stereo not drawn) [Material 1098] | J (Melamine formaldehyde PMC leakage less than or equal to 5%) | I (Melamine formaldehyde PMC Headspace Response Ratio greater than or equal to 10) | – | – | – |
| CCC=C(C)C(O)CCCCC (stereo not drawn) [Material 1104] | – | – | J (Melamine formaldehyde PMC leakage less than or equal to 5%) | I (Melamine formaldehyde PMC Headspace Response Ratio greater than or equal to 10) | – |
| CCCCCC1(C)CCC(C)(C)C1=O (stereo not drawn) [Material 1115] | J (Melamine formaldehyde PMC leakage less than or equal to 5%) | I (Melamine formaldehyde PMC Headspace Response Ratio greater than or equal to 10) | – | – | – |
| CC1=CC(=O)[C@@H]2C[C@H]1C2(C)C [Material 1119] | J (Melamine formaldehyde PMC leakage less than or equal to 5%) | I (Melamine formaldehyde PMC Headspace Response Ratio greater than or equal to 10) | – | – | – |
| CC(C)(C)C1CCCCC1O (stereo not drawn) [Material 1122] | J (Melamine formaldehyde PMC leakage less than or equal to 5%) | I (Melamine formaldehyde PMC Headspace Response Ratio greater than or equal to 10) | – | – | – |
| CC1(C)C2CCC3(C2)C1C(=O)CCC3(C)C (stereo not drawn) [Material 1149] | J (Melamine formaldehyde PMC leakage less than or equal to 5%) | I (Melamine formaldehyde PMC Headspace Response Ratio greater than or equal to 10) | – | – | Comment Code: Melamine formaldehyde PMC leakage ([2]; code J of the Comment Code column, Table 1): J (Melamine formaldehyde PMC leakage less than or equal to 5%); Comment Code: Melamine formaldehyde PMC Headspace Response Ratio ([3]; code I of the Comment Code column, Table 1): I (Melamine formaldehyde PMC Headspace Response Ratio greater than or equal to 10) |

From US20160090556A1, “PRODUCTS COMPRISING MALODOR REDUCTION MATERIALS” (The Procter & Gamble Company, priority 2014, published 2016)
